A: 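Whole-cell growth test on Mycobacterium tuberculosis, read after 3 days in glucose-containing 7H9 medium; the read-out is not stated. Concentration: 50 µM. Direction is inferred from retests: higher values go with more growth inhibition. Size under these conditions: about 69,000 compounds, about 760 of them at 50% or above in at least one test.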
B: 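Growth of Mycobacterium tuberculosis over 4 days (cholesterol / DPPC medium with tyloxapol); the read-out is not stated. Compounds at 50 µM. The record gives no direction; compounds that gave an IC50 in retests scored well above the rest, so higher reads as more growth inhibition. Of about 69,000 compounds tested this way, about 370 (0.54%) reached 50% or more in at least one test.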

Results are given as percent effect.
The record does not define 0% and 100%; most values in the screen are far below 50% and negative numbers occur (in some assays of this library far below -100).
The compounds are a random part of those screened.
Two or more numbers in one place are separate tests of the same structure; such repeats can differ widely.
A dash means the value is not listed here; it may have been measured.

structure,A,B
CN(C)[C@@H]1CCN(C(=O)Cc2ccc(F)cc2)[C@H]1Cc1cnn(C)c1.O=C(O)C(F)(F)F,-13.74%,-23.08%
Cc1nc(O)cc([C@@H]2CN(C(=O)C3CC3)C[C@H]2c2ccccc2F)n1,4.477%,3.14% and -3.506%
CNc1snc(C)c1C(=O)N1CCCC(n2ccnc2C(C)C)C1 (centres undefined),21.25%,11.03%
CCc1cnc(CN(C)C(C)C(=O)N2CCc3ccccc3C2)s1 (centres undefined),19.13% and 12.21%,22%
Cc1nn(C)c(C)c1-c1cncc(C2CCN(S(C)(=O)=O)CC2)n1,-2.138%,-6.419%
CNC(=O)CN1CCC(NC(=O)Cc2ccccc2OC(C)C)CC1,-0.69%,-1.046%
COC(=O)C(C)CN(Cc1ccccc1)C(=O)CN1CCCNC1=O (centres undefined),-17.02%,-11.49%
CN(C)C1COC2(CCN(Cc3nccs3)CC2)C1.O=C(O)C(F)(F)F.O=C(O)C(F)(F)F (centres undefined),24.42%,0.2037%
COc1ccccc1-c1cc(NC(=O)COCC2CC2)[nH]n1,4.947%,-22.79%
Cc1ccc2nc(CN3CCC(O)(Cn4ccnc4)CC3)cc(O)c2c1,-35.97%,-5.551%
COc1ccc2c(c1)[C@@H](CCNC(C)=O)CC(C)(C)O2,-9.845%,-11.37%
Cc1cc(C)n(CCC(=O)N2CCCC(c3nc(C(C)C)no3)C2)n1 (centres undefined),7.354%,-4.133%
Oc1ccccc1-c1n[nH]c(C2CCCO2)n1 (centres undefined),-48.48%,-31.09%
CNC(=O)C1(CCCc2cnccn2)CCN1CCc1ccccc1 (centres undefined),-17.72%,6.195% and 1.832%
CC(C)c1nc(C2CCCN(c3nccc(N4CCCC4)n3)C2)no1 (centres undefined),22.41%,22.13%
COCCOc1cccc(CNCC2CN(C)CCO2)c1 (centres undefined),-1.752% and -57.98%,-9.908%
[H][C@]12CC[C@]([H])(CN(Cc3cscn3)C1)N(C(=O)Nc1ccc(C)cc1)C2,-2.751%,-12.96%
CS(=O)(=O)c1ccc(NC(=O)NCCC2=CCCCC2)cc1,31.41%,16.66%
O=C(O)C(F)(F)F.[H][C@@]12C[C@@H](c3nc(C4CC4)cs3)O[C@]1([H])CN(C(=O)c1cnccn1)C2,-9.764%,1.77%
O=C1CNc2ncnc(N3CCN(Cc4ccccc4F)CC3)c2N1,14.5%,6.44%
CC(=O)N1CCC(NC(=O)CN2CCCc3c(F)ccc(C)c32)CC1,3.404%,8.15%
O=C(Nc1cnn(CC(F)F)c1)c1cccc(-n2cnnn2)c1,0.9119% and 3.121%,-1.303%
Cc1nnc2n1CCN(Cc1ncc(-c3ccc(F)cc3)o1)C2,-5.637%,-2.872%
CCOc1ncccc1NC(=O)c1cc(C)sc1C,16.9%,1.011%
NC(=O)c1cc(C2CCCN(CCCOc3ccc(F)cc3)C2)n[nH]1 (centres undefined),2.784%,-17.89%
CN(C)c1ncccc1NC(=O)C1CN(Cc2ccccc2)CCO1 (centres undefined),12.01%,10.06% and -4.917%
CC[C@H]1COCCN1C(=O)CCCn1nnc(-c2ccc(F)cc2)n1,22.03%,1.845%
COCCCNC(=O)c1cn(C(C)(C)C)c2ncccc12,7.523%,-5.459%
O=S(=O)(CCCN1CCCCC1Cn1cncn1)c1ccccc1 (centres undefined),2.988%,-9.797%
Cc1nc2cc(-c3nccn3C)nn2c(N2CCCC(O)C2)c1C.Cl (centres undefined),2.946%,8.467% and -8.839%
CC1(C)CC(N(Cc2ccccc2)Cc2c[nH]cn2)CC(C)(C)N1.O=C(O)CC(O)(CC(=O)O)C(=O)O,-19.16%,-0.2422% and -2.75%
Cn1nccc1-c1ccc2nc(C3CCN(CC4CC4)CC3)nn2c1.O=C(O)C(F)(F)F.O=C(O)C(F)(F)F,7.063%,-14.6%
CC(=O)N1CCC2(CC1)COC(COCc1ccccn1)C2.O=C(O)C(F)(F)F (centres undefined),-2.093% and -11.8%,-6.431% and -12.09%
CNC(=O)c1cnn2c(C3CCCN3)ccnc12 (centres undefined),-,-69.13%
COc1ncccc1CNCc1cnc(N2CCOCC2)nc1,18.4%,-4.031%
Cn1ccc(NC(=O)CN2CCC(Oc3cnccn3)CC2)n1,16.22%,3.669%
CCc1nc(CN2CCCC(NCCn3cncn3)C2)no1 (centres undefined),-30.38%,-4.569% and 0.002253%
CN(C)Cc1cccc(C(=O)N2CCCC(n3cncn3)C2)c1 (centres undefined),-24.37%,-22.97%
Cc1nc(C(=O)N2CCOC(c3nc(C(C)C)n[nH]3)C2)c[nH]1 (centres undefined),20%,-0.7929%
Cc1nc(CNC(=O)NC2CCN(c3ncccc3Cl)C2)oc1C (centres undefined),-1.893%,-4.189%
O=C(Nc1cnn(C2CCOCC2)c1)c1ccc2c(c1)OCO2,-13.74%,12.25%
CC(=O)Nc1ccc(SCCCC(=O)NCC2CCCO2)nn1 (centres undefined),-8.647%,-9.685%
Fc1ccc(NCc2nnsc2Cl)c(OC(F)F)c1,-9.393%,4.886%
Cn1cc(C(=O)N2CCC(c3cc(CCO)n(C)n3)C2)cn1 (centres undefined),10.17%,7.568%
CC(C)Nc1cccc(CC2CCN(S(C)(=O)=O)CC2)n1,-21.71%,3.95%
CN(C)C(=O)Cn1c(C2CC2)c(CN2CCC(O)CC2)c2cccnc21.Cl,-15.96%,-25.99%
Cc1cccc(NC(=O)[C@@H]2CCCN2CC(=O)N2CCCCCC2)n1,-1.606%,2.607%
Cc1c(C(=O)N2CCS(=O)(=O)CC2)nnn1-c1ccc2ncccc2c1,19.02%,-1.357%
COCCNc1ccc(CC2CCCN(C3CCOCC3)C2)nn1 (centres undefined),-2.674%,-7.279% and 14.61%
[H][C@]12CC[C@]([H])(CN(C(=O)c3ccccc3)C1)N(C(=O)CN1CCOC1=O)C2,-30.61%,-8.372%
Cc1nn(C)c(Cl)c1C1CCCN1C(=O)c1ccc(N(C)C)nn1 (centres undefined),3.673% and -6.834%,-18.86%
CC(C)CC(=O)N1CC(=O)N(Cc2ccco2)CC(O)C1 (centres undefined),-20.5%,-29.58%
CCN(Cc1csc(CS(C)(=O)=O)n1)c1cccc(CO)c1,17.37%,0.5992% and 22.25%
CC(NCC1(N(C)C)CCOCC1)c1ccc(SC(F)F)cc1 (centres undefined),5.44% and 21.15%,4.203%
COC(=O)CC(c1cnn(C)c1)c1oc(C)cc(=O)c1O (centres undefined),-21.27%,-1.532%
CNC(=O)c1cccc(C2CNCCN2C(C)=O)c1 (centres undefined),-21.36%,-24.38%
O=C1CN(C(=O)CN(CC2CCC2)CC(F)(F)F)CCN1,9.375%,-4.494%
CC(C)c1nc(C2CCCN2CCc2ccccn2)no1 (centres undefined),19.58%,2.476%
Cc1ccc(N2CCC3(CC2)CNC(=O)CO3)nn1.O=C(O)C(F)(F)F,17.16%,-7.965%
O=C(c1ccncc1)N1CCCn2nnc(Cn3cccn3)c2C1,11.86%,-11.56%
CC(C)CC(C)NC1CCN(c2cccc(-c3cscn3)c2)CC1 (centres undefined),-0.7143%,2.563%
Cc1ccc(C(=O)NC(CN2CCCC2)c2ccccc2)c(=O)[nH]1 (centres undefined),-0.5397%,-22.2%
O=C(c1cnccn1)N1CCN(Cc2cccnc2)c2ncccc2C1,6.661%,-29.67%
Cc1noc(CCCC(=O)NC(C)c2cn(-c3ccccc3)nn2)n1 (centres undefined),-5.234%,1.379%
COCc1nc(CNC2CCSCC2)no1,-5.356%,-7.611%
CCc1nc(C)c(CC(=O)N2CCC3(CC2)OCCCC3O)c(=O)[nH]1 (centres undefined),-3.206%,15.57%
COC(=O)c1sc(C(F)(F)F)cc1OC,28.19%,-5.244%
O=C(NC1CC1)c1ccnc(N2CCOC(c3ccc(Cl)c(Cl)c3)C2)c1 (centres undefined),54.77%,9.942% and 8.779%
Cc1ccc(C(CNCc2ccncc2)N2CCOCC2)s1 (centres undefined),-17.87%,-8.844% and -12.41%
O=C(NCC(O)(c1ccco1)C1CC1)c1ccccc1F (centres undefined),5.723%,-12.13%
CCc1[nH]ncc1C(=O)N1CCOC(c2nc(C)n[nH]2)C1 (centres undefined),-3.906%,1.171%
Cl.NC(=O)C1CN(c2ccc(F)cc2)CCN1 (centres undefined),2.083%,-0.9254%
O=C(NCc1ccc(F)cc1)NCC1(N2CCOCC2)CCSC1 (centres undefined),-12.95% and -6.891%,-5.192%
COc1cc(OC)cc(C(=O)N(C)Cc2nnc3ccccn23)c1,-25.84%,4.99%
CNC(=O)NC(=O)CN1CCCC(Cc2ccccc2OC)C1 (centres undefined),-11.93%,8.502%
Cc1nccn1-c1cc(CNC(=O)CC2CCCO2)ccn1 (centres undefined),-7.804%,-15.16%
Cc1noc(C(C)C)c1C(=O)NS(=O)(=O)c1cccnc1,-22.66%,-6.326%
Cc1ccc2cc(C(=O)NCCn3nc4ccccn4c3=O)[nH]c2c1,-40.75%,-35.08%
Cc1cc(C(F)F)nn1C(C)C(=O)NCc1nccn1C (centres undefined),-10.51%,-2.987% and -20.25%
COc1ccc(NC(C)=O)cc1S(=O)(=O)Nc1ccon1,6.682% and 0.9171%,13.97%
CC(NC(=O)NCC1(O)CCC1)c1ccc(OCC2CC2)c(F)c1 (centres undefined),20.53% and 5.245%,10.65%

Source: ChEMBL document CHEMBL3988442, “University of Dundee, Small-Polar-MMV Screening Library” (2021).